According to article PMC5405935, “Role of Kif15 and its novel mitotic partner KBP in K-fiber dynamics and chromosome alignment” (PLoS ONE, 2017):
These are yes or no findings as the source states them, for the method shown. For some of these results: In cells and extracts the contact can be indirect. Some binding calls cover weakened binding; strength is not graded here. For some of these results: Tags and fused reporters may be left off the sequences shown. Each block holds one binder with its values, some of them ahead of it.

What was measured:
[1] = target: T1, KBP (endogenous) (human (endogenous in HEK293T)), Q96EK5; assay: co-IP; anti-KBP antibody on protein-A dynabeads, 2 h at 4°C, lysate of HEK293T cells synchronized in mitosis; endogenous proteins; immunoblot; details: remark: other sources report otherwise
T1 chain: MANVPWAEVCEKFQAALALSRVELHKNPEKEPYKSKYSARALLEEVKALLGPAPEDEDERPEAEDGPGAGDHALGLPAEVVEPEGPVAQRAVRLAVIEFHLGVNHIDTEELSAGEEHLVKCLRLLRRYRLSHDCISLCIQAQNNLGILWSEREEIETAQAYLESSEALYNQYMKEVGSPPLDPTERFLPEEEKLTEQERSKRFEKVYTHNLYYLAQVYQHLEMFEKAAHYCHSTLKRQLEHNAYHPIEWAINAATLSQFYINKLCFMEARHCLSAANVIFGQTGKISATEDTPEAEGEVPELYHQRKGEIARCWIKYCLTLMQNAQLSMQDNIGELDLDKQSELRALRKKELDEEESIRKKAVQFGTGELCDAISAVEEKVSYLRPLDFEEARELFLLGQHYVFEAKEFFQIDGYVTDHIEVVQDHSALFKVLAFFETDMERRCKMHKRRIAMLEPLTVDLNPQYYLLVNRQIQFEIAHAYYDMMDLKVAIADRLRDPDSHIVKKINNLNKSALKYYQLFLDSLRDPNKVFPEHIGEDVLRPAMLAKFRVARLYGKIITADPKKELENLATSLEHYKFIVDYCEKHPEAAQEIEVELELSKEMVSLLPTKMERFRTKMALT

[2] = target: T2, Flag-tagged Kif15 (full length, residues 1-1388) (human), Q9NS87; assay: co-IP; anti-Flag M2 magnetic beads, 30 min at 4°C, lysates of HEK293T cells synchronized in mitosis (thymidine, nocodazole, shake off); stable or transient Flag-Kif15 or Flag-Kif15 truncations, GFP-KBP co-transfected where named; also with or without λ-phosphatase; immunoblot; details: remark: other sources report otherwise
T2 chain: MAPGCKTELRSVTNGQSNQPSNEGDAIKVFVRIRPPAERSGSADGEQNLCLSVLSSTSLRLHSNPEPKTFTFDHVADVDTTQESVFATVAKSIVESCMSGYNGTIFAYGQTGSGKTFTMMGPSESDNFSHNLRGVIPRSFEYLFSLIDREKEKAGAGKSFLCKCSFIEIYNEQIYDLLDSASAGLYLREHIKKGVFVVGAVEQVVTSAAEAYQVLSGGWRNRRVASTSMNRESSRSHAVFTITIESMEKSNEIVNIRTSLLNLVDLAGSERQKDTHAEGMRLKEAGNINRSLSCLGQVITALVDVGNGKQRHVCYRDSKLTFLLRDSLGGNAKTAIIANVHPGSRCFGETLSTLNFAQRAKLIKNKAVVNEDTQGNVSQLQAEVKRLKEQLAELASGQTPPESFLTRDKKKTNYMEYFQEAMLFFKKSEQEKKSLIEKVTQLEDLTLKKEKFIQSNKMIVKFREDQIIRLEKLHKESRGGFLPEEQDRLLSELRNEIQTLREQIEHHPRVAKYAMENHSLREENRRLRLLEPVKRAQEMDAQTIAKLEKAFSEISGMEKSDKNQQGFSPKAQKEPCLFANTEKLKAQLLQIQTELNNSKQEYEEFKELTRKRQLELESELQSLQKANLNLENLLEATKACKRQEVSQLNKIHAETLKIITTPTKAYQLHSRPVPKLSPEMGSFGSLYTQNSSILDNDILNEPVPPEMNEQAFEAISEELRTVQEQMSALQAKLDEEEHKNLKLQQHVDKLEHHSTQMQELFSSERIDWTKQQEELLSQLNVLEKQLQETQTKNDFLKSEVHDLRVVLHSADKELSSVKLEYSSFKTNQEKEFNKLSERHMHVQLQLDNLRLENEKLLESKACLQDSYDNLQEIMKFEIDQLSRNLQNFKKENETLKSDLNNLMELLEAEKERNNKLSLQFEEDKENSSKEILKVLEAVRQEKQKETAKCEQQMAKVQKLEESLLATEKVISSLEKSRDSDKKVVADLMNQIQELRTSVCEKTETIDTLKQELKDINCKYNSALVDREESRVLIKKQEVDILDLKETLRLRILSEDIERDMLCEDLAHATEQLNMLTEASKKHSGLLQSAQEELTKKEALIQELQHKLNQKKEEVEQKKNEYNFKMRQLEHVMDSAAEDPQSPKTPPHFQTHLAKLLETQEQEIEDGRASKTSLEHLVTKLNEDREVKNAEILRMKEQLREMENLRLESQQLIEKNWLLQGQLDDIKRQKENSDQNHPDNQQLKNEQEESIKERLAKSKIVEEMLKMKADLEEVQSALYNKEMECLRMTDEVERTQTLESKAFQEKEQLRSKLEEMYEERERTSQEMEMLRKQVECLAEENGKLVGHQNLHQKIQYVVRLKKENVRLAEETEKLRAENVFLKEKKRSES

[3] = target: T3, Flag-tagged Kif15 (full length, residues 1-1388) (human) (UniProt Q9NS87); assay: co-IP; anti-Flag immunoprecipitation from lysates of stable Flag-Kif15 HEK293T cells synchronized in interphase; immunoblot with anti-Kif15 and anti-KBP
T3 sequence: T2 chain

[4] = target: KBP-His (full-length His-tagged KBP) (human) (UniProt Q96EK5); assay: SEC + other: sucrose gradient centrifugation; 80 μg of each protein alone or both in motor buffer (100mM PIPES, 2mM MgAc2, 1mM EGTA, 1mM DTT), pre-incubated 30 min on ice; Superose 6 column; 6-28% sucrose gradients, 16 h at 4°C; with or without ATP; native molecular weights calculated from Stokes radius and sedimentation coefficient; both purified

- binding [1]: binds
B1: Kif15 (endogenous), Q9NS87 1-1388 (protein)
chain: T2 chain

- binding [4]: no binding
B4: KBP-His (full-length His-tagged KBP) (natural protein, human, UniProt Q96EK5 1-621, looked up)
chain: T1 chain
notes: also called recombinant His-tagged KBP; source: E. coli BL21 (DE3), purified (Ni-NTA)

The remaining lines, values behind:

B2: KBP (endogenous), Q96EK5 1-621 (protein)
chain: T1 chain
- binding [2]: binds

B3: KBP (endogenous) (protein, UniProt Q96EK5 1-621)
chain: T1 chain
- binding [3]: no binding (condition: cells synchronized in interphase)
